Measured values taken from patent US20190194358A1.

Columns and labels:
[1] = biological target: Hemochromotosis type 2 (human); test: Invitrogen ProtoArray Human Protein Microarray v4.0; biotinylated synbody, fluorescently labelled streptavidin; fluorescence intensity
[2] = biological target: Meckel syndrome, type I (human); test: as above
[3] = biological target: HBV-associated factor (human); test: as above
[4] = biological target: Castor, zinc-finger protein 1 (human); test: as above
[5] = biological target: Ig kappa light chain (human); test: human protein microarray (Protoarray), biotinylated synbody and labelled streptavidin

Measured: binding

B1: SYN21-22 (designed binder)
peptide 1: QYHHFMNLKRQGRAQAYGSG
peptide 2: HAYKGPGDMRRFNHSGMGSG
modifications: C-terminus joined to an amine of the branching lysine
binds: all assays above

No constants are given. Whether binding was seen depends on the method and setting. A result given as binding can be weak or reduced; the word gives no strength.
